Earlier results on 1 compound are cited in article PMC4014002 (The FEBS journal, 2014).

This data set concerns the target T94T and T94A. The conditions noted are these: cited from earlier work.

Take `CC(C)OC(=O)C(C)(C)Oc1ccc(C(=O)c2ccc(Cl)cc2)cc1` [fenofibrate]: the “Ki, T94T compared with T94A” value is on record as “same (or similar) Ki”.
